Assay results as given in the supplement of paper PMC12578635.
± gives the standard deviation of the averaged measurements. The list shows a part of the results. Repeats are few or missing, and single values can be far off.

System: RAW 264.7 macrophages infected with S. aureus JE2-lux
Test: host macrophage viability (CellTiter-Fluor) relative to DMSO vehicle; higher = more viable host cells
Conditions: 10 µM; treatment time 4 h; gentamicin 50 µg/ml

Structure (SMILES)	host macrophage viability
COc1ccccc1NC(=O)N1CCCC1C(=O)Nc1cccc2ccccc12 (stereo unspecified)	107%
Cc1ccc2sc(NC(=O)c3ccc(N4C(=O)CCC4=O)cc3)nc2c1C	120%
Cc1cc(C)n(-c2cc(N3CCN(c4cc(Cl)ccc4C)CC3)ncn2)n1	94.3%
Cc1cc(NC(=O)c2cccc(C(F)(F)F)c2)nc2c1c(=O)oc1ccccc12	104%
Cc1ccc(-c2csc(-n3nc(C)c(CC(=O)N4CCN(c5ccc(F)cc5)CC4)c3O)n2)cc1	117%
CCOC(=O)c1[nH]c2ccccc2c1NC(=S)Nc1cccc(C(F)(F)F)c1	105%
O=C1c2ccccc2-c2nn(C(=O)c3ccccc3)c3cccc1c23	128%
Cc1cc2cc3c(N)c(C(=O)Nc4nonc4C)sc3nc2cc1C	126%
CC(C)(C)n1nc2c(c1NC(=O)COc1ccccc1)CS(=O)(=O)C2	109%
O=C(Nc1ccc(F)cc1)N1CCC(c2nc3ccccc3o2)CC1	107%
Cc1cc(Cl)ccc1Nc1nc(N)c(C(=O)c2c[nH]c3ccccc23)s1	133%
Cc1ccc(CNC(=O)c2ccc(Cn3c(=O)[nH]c4ccsc4c3=O)cc2)cc1	125%
Cc1cc(NC(=O)CN2CC3CC(C2)c2cccc(=O)n2C3)nc2c1c(=O)oc1ccccc12 (stereo unspecified)	121%
COc1ccc(C2CC(=O)c3cnc(NC4OC(=O)c5ccccc54)nc3C2)cc1OC (stereo unspecified)	109%
CCOC(=O)c1c(NC(=S)Nc2c(C)n(C)n(-c3ccccc3)c2=O)sc2c1CCCC2	107%
O=C(Nc1cccc(F)c1)c1cccc(-c2ccc(N3CCCCC3)nn2)c1	110%
O=C(c1ccc(S(=O)(=O)N2CCCCC2)cc1)N1CCN=C1SCc1ccc([N+](=O)[O-])cc1	91.6%
COc1ccc(NC(=O)Cn2cc(C(=O)c3ccc(F)cc3)c(=O)c3ccccc32)c(OC)c1	127%
Cc1cccc(NC(=O)c2sc3nc(-c4ccc(F)cc4)cn3c2C)c1C	126%
Cc1nnc2ccc(-n3ncc4c3NC(=O)CC4c3ccc(OCc4ccc(F)cc4)cc3)nn12 (stereo unspecified)	104%
Cc1ccc(C)c(N(C(=O)c2csnn2)C(C(=O)NC2CCCCC2)c2ccccn2)c1 (stereo unspecified)	108%
COC(=O)c1ccc(CSc2nc3c(c(=O)n2-c2ccccc2)SCC3)o1	99.2%

Quoted from above for reference:
Structure (SMILES)	host macrophage viability
O=C(c1ccc(S(=O)(=O)N2CCCCC2)cc1)N1CCN=C1SCc1ccc([N+](=O)[O-])cc1	91.6%
COc1ccc(NC(=O)Cn2cc(C(=O)c3ccc(F)cc3)c(=O)c3ccccc32)c(OC)c1	127%

(cont.)

Structure (SMILES)	host macrophage viability
Cn1c(=O)c2c(nc(Br)n2CC(=O)c2ccccc2)n(C)c1=O	117%
O=c1[nH]c2ccccc2n1CCCOc1ccc(Cl)cc1	112%
CN1CCOc2ccc(NC(=O)CN3C(=O)c4ccccc4C3=O)cc2C1=O	116%
CC1=NN(c2ccccc2)C(=N)/C1=N\Nc1cccnc1	112%
Cc1cc2ccccc2n2c(=O)n(CCNC(=O)C3CC(=O)N(C)C3)nc12 (stereo unspecified)	114%
O=C(Nc1ccc(Cl)cc1)c1ccc(-c2nc3ccccc3s2)s1	122%
COc1ccc(-c2nnc3n2N=C(c2cccc([N+](=O)[O-])c2)CS3)cc1	128%
Cc1occc1-c1nnc(SCC(=O)NCCc2nc3ccccc3[nH]2)o1	123%
COc1ccc(C(=O)CSc2nc3[nH]ncc3c(=O)[nH]2)cc1	115%
CC(CNc1nccn(-c2ccc3c(c2)OCO3)c1=O)c1ccccc1 (stereo unspecified)	116%
COc1cc(NS(=O)(=O)c2ccc(NC(=O)c3ccc(Cl)cc3Cl)cc2)ncn1	119%
COc1ccc(-n2cnc3c(C)nc(-n4nc(C)cc4C)nc32)cc1	98.4%
COc1ccccc1OCC(=O)Nn1cnc2c(cnn2-c2ccc(C)cc2)c1=O	128%
COCCCN1CCn2c(nc3cc(NC(=O)c4ccccc4OC)ccc32)C1	96.2%
COc1cccc(C(=O)OCn2nnc3ccccc3c2=O)c1OC	109%
O=C(O)CC1SC(Nc2ccc(O)cc2)=NC1=O (stereo unspecified)	116%
CSc1nnc(C)c(=O)n1COC(=O)/C=C/c1ccc2c(c1)OCO2	113%
Cc1cc(OC(=O)c2ccc(S(=O)(=O)N3CCOCC3)cc2)c([N+](=O)[O-])c(=O)[nH]1	120%
CCCc1cc(C(=O)N2CCCC2c2cccs2)no1 (stereo unspecified)	112%
COc1ccc(Cl)cc1NC(=O)C(C)n1nc(-c2cc(C)oc2C)cc(N)c1=O (stereo unspecified)	105%
CCc1nnc(NC(=O)CSc2ncnc3c2cnn3-c2ccc(Cl)cc2)s1	110%
Cc1ccc(NC(=O)Cn2nnc(-c3c[nH]c4ccccc34)n2)c(C)c1	117%

Structure (SMILES)	host macrophage viability
O=C(Nc1ccc(Br)cc1)C1CCN(C(=O)NCc2ccccc2)CC1	116%
Cc1ccc(/C=C(/C#N)C(=O)Nc2sc3c(c2C(N)=O)CCCC3)o1	106 ± 9%
CCn1c(SCC(=O)Nc2cc(C)on2)nc2c(c1=O)SC(C)C2 (stereo unspecified)	105%
CCc1ccc(N2C(=O)SC(Nc3ccc(S(N)(=O)=O)cc3)C2=O)cc1 (stereo unspecified)	113%
CCOC(=O)c1sc2nc(NC(=O)c3ccccc3OC)sc2c1C	122%
CCOC(=O)c1cnc(SCC(=O)c2ccc(F)cc2)nc1N	109%
O=C(COC(=O)c1cc(O)nc2ccccc12)c1ccc(Cl)cc1	117%
O=C1c2ccncc2C(=O)N1CNc1ccc(Br)cc1	117%
CCCCC(=O)N1CCN(c2nn3c(NC(C)(C)C)c(-c4cccc(C)c4)nc3s2)CC1	139%
COc1ccc2cc(CN(C)Cc3n[nH]c4c3CCCC4)c(OC)nc2c1	109%
Cc1ccc(CNC(=O)c2cnc3c(c(C)nn3-c3ccccc3)c2NCc2ccc(Cl)cc2)o1	76%
CCC(=O)Nc1nc(-c2ccc3c(c2)OCCO3)cs1	120%
O=C(CN1C(=O)CC(c2ccccc2)Sc2ccccc21)Nc1ccc(F)cc1F (stereo unspecified)	110 ± 8.4%
CCc1nc(-c2csc(S(=O)(=O)N3CCC(C(=O)N4CCc5ccccc5C4)CC3)c2)no1	115%
O=C(OCn1nnc2ccccc2c1=O)c1cccs1	96%
COc1ccc(CC(=O)N2CCC(c3nnc(C(=O)Nc4ccccc4C)s3)CC2)cc1OC	98.1%
O=C(CSc1nc(-c2ccccc2Cl)ns1)Nc1nccs1	105 ± 3.9%
O=C(/C=C/c1ccc2c(c1)OCO2)NCCc1csc2nc(-c3ccc(F)cc3)nn12	127%
CC(C)N1CCn2c(nc3cc(NS(C)(=O)=O)ccc32)C1	106%
COc1cc(/C=N/n2cnnc2)ccc1OC(=O)c1ccncc1	92.8%
CC(=O)c1cccc(NC(=O)CSc2nc(=O)n(N3CCN(C)CC3)c3c2CCCC3)c1	108%
N#Cc1c(NC(=O)c2nc3ccccc3s2)sc2c1CCN(Cc1ccccc1)C2	92.2%

Quoted from the listing.
Value of O=C(/C=C/c1ccc2c(c1)OCO2)NCCc1csc2nc(-c3ccc(F)cc3)nn12 under host macrophage viability: 127%
Value of O=C(Nc1ccc(Br)cc1)C1CCN(C(=O)NCc2ccccc2)CC1 under host macrophage viability: 116%
